In article doi:10.1101/2024.10.21.619543:
These are yes or no findings as the source states them, for the method shown. Binding seen in cells or lysates may run through a third protein. Some binding calls cover weakened binding; strength is not graded here.

The chains behind the UniProt entries cited, without tags or fusion partners. Where a name states a change or a piece, a line headed by the entry shows the natural chain unless it says otherwise.
UniProt Q9C005: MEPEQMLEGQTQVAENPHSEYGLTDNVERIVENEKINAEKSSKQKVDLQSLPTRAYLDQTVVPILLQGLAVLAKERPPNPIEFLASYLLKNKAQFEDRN
UniProt Q9UBL3: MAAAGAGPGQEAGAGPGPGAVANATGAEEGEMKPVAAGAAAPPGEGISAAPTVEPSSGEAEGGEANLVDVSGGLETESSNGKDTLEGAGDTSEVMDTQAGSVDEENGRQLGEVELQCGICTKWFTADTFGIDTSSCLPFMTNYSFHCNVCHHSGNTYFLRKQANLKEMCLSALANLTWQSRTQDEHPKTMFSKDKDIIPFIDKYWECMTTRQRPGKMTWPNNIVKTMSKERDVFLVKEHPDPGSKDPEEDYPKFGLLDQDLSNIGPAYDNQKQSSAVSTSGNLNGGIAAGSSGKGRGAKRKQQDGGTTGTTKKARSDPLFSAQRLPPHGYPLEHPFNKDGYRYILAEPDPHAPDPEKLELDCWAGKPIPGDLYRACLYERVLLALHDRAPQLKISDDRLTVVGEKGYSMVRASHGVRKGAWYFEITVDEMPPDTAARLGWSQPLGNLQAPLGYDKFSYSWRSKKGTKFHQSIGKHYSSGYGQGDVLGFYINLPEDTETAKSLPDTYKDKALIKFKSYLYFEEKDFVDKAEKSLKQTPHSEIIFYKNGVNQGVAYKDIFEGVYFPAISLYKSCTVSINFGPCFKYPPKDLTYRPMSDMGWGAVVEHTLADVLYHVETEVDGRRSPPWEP
UniProt Q15291: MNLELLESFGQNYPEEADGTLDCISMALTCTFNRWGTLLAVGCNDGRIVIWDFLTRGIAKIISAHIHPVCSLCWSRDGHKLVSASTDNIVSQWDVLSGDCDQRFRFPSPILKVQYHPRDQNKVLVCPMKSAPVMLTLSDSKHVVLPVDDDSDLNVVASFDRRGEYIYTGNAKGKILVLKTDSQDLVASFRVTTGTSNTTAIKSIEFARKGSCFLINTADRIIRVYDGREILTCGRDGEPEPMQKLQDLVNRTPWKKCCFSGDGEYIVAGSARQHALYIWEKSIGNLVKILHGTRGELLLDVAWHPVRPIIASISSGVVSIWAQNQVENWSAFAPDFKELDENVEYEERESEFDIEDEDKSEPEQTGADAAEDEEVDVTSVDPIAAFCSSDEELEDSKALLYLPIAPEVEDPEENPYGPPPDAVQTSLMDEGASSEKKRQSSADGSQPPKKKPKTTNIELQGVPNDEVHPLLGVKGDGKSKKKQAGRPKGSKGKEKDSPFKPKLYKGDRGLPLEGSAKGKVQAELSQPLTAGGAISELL

B1: WDHD1 (endogenous, human PDAC cells) (protein, UniProt O75717 1-1129)
chain: MPATRKPMRYGHTEGHTEVCFDDSGSFIVTCGSDGDVRIWEDLDDDDPKFINVGEKAYSCALKSGKLVTAVSNNTIQVHTFPEGVPDGILTRFTTNANHVVFNGDGTKIAAGSSDFLVKIVDVMDSSQQKTFRGHDAPVLSLSFDPKDIFLASASCDGSVRVWQISDQTCAISWPLLQKCNDVINAKSICRLAWQPKSGKLLAIPVEKSVKLYRRESWSHQFDLSDNFISQTLNIVTWSPCGQYLAAGSINGLIIVWNVETKDCMERVKHEKGYAICGLAWHPTCGRISYTDAEGNLGLLENVCDPSGKTSSSKVSSRVEKDYNDLFDGDDMSNAGDFLNDNAVEIPSFSKGIINDDEDDEDLMMASGRPRQRSHILEDDENSVDISMLKTGSSLLKEEEEDGQEGSIHNLPLVTSQRPFYDGPMPTPRQKPFQSGSTPLHLTHRFMVWNSIGIIRCYNDEQDNAIDVEFHDTSIHHATHLSNTLNYTIADLSHEAILLACESTDELASKLHCLHFSSWDSSKEWIIDLPQNEDIEAICLGQGWAAAATSALLLRLFTIGGVQKEVFSLAGPVVSMAGHGEQLFIVYHRGTGFDGDQCLGVQLLELGKKKKQILHGDPLPLTRKSYLAWIGFSAEGTPCYVDSEGIVRMLNRGLGNTWTPICNTREHCKGKSDHYWVVGIHENPQQLRCIPCKGSRFPPTLPRPAVAILSFKLPYCQIATEKGQMEEQFWRSVIFHNHLDYLAKNGYEYEESTKNQATKEQQELLMKMLALSCKLEREFRCVELADLMTQNAVNLAIKYASRSRKLILAQKLSELAVEKAAELTATQVEEEEEEEDFRKKLNAGYSNTATEWSQPRFRNQVEEDAEDSGEADDEEKPEIHKPGQNSFSKSTNSSDVSAKSGAVTFSSQGRVNPFKVSASSKEPAMSMNSARSTNILDNMGKSSKKSTALSRTTNNEKSPIIKPLIPKPKPKQASAASYFQKRNSQTNKTEEVKEENLKNVLSETPAICPPQNTENQRPKTGFQMWLEENRSNILSDNPDFSDEADIIKEGMIRFRVLSTEERKVWANKAKGETASEGTEAKKRKRVVDESDETENQEEKAKENLNLSKKQKPLDFSTNQKLSAFAFKQE
B2: MCM6 (endogenous, human PDAC cells) (protein, UniProt Q14566 1-821)
chain: MDLAAAAEPGAGSQHLEVRDEVAEKCQKLFLDFLEEFQSSDGEIKYLQLAEELIRPERNTLVVSFVDLEQFNQQLSTTIQEEFYRVYPYLCRALKTFVKDRKEIPLAKDFYVAFQDLPTRHKIRELTSSRIGLLTRISGQVVRTHPVHPELVSGTFLCLDCQTVIRDVEQQFKYTQPNICRNPVCANRRRFLLDTNKSRFVDFQKVRIQETQAELPRGSIPRSLEVILRAEAVESAQAGDKCDFTGTLIVVPDVSKLSTPGARAETNSRVSGVDGYETEGIRGLRALGVRDLSYRLVFLACCVAPTNPRFGGKELRDEEQTAESIKNQMTVKEWEKVFEMSQDKNLYHNLCTSLFPTIHGNDEVKRGVLLMLFGGVPKTTGEGTSLRGDINVCIVGDPSTAKSQFLKHVEEFSPRAVYTSGKASSAAGLTAAVVRDEESHEFVIEAGALMLADNGVCCIDEFDKMDVRDQVAIHEAMEQQTISITKAGVKATLNARTSILAAANPISGHYDRSKSLKQNINLSAPIMSRFDLFFILVDECNEVTDYAIARRIVDLHSRIEESIDRVYSLDDIRRYLLFARQFKPKISKESEDFIVEQYKHLRQRDGSGVTKSSWRITVRQLESMIRLSEAMARMHCCDEVQPKHVKEAFRLLNKSIIRVETPDVNLDQEEEIQMEVDEGAGGINGHADSPAPVNGINGYNEDINQESAPKASLRLGFSEYCRISNLIVLHLRKVEEEEDESALKRSELVNWYLKEIESEIDSEEELINKKRIIEKVIHRLTHYDHVLIELTQAGLKGSTEGSESYEEDPYLVVNPNYLLED
B3: MCM6 (endogenous, mouse KPC cells) (protein, UniProt P97311 1-821)
chain: MDLAAAAEPGAGSQHPEVRDEVAEKCQKLFLDFLEEFQGSDGEIKYLQFAEELIRPERNTLVVSFADLEQFNQQLSTTIQEEFYRVYPYLCRALKTFVKDRKEIPFAKDFYVAFQDLPTRHKIRELTSSRIGLLTRISGQVVRTHPVHPELVSGTFLCLDCQTVIKDVEQQFKYTQPNICRNPVCANRKRFLLDTNKSRFVDFQKVRIQETQAELPRGSIPRSLEVILRAEAVESAQAGDRCDFTGALIVVPDVSKLSTPGARAETNSRVSGADGYETEGIRGLRALGVRDLSYRLVFLACHVAPTNPRFGGKELRDEEQTAESIKNQMTVKEWEKVFEMSQDKNLYHNLCTSLFPTIHGNDEVKRGVLLMLFGGVPKTTGEGTSLRGDINVCIVGDPSTAKSQFLKHVDEFSPRAVYTSGKASSAAGLTAAVVRDEESHEFVIEAGALMLADNGVCCIDEFDKMDMRDQVAIHEAMEQQTISITKAGVKATLNARTSILAAANPVSGHYDRSKSLKQNINLSAPIMSRFDLFFILVDECNEVTDYAIARRIVDLHSRIEESIDRVYSLDDIRRYLLFARQFKPKISKESEDFIVEQYKRLRQRDGSGVTKSSWRITVRQLESMIRLSESMARMHCCDEVQPKHVKEAFRLLNKSIIRVETPDVNLDQEEEIQMETDEGQGGVNGHADSPAPVNRFNGSSEDASQETVSKPSLRLGFAEYCRISNLIVLHLRKMEEEEDESALKRSELVNWYLKEIESEIDSEEELINKKTIIEKVVHRLTHYDHVLIELTQAGLKGSSEGSESYEEDPYLVVNPNYLLED

Assays:
[1] = biological target: DPY30 (endogenous, human PDAC cells) (human (endogenous in PATC53 and PATC66)) (UniProt Q9C005); experiment: proximity ligation
[2] = biological target: DPY30 mutant L69D, overexpressed in KPC or PATC53 cells (human) (UniProt Q9C005); experiment: co-IP
[3] = biological target: ASH2L (endogenous, PATC53 cells) (human (endogenous in PATC53)) (UniProt Q9UBL3); experiment: co-IP
[4] = biological target: RBBP5 (endogenous, PATC53 cells) (human (endogenous in PATC53)) (UniProt Q15291); experiment: co-IP

Binder	binding [1]	binding [2]	binding [3]	binding [4]
B1	binds	–	–	–
B2	–	no binding	binds	binds
B3	–	no binding	–	–
